Values from PubChem BioAssay AID1508597 (Cure First, 2020)
In all, the deposit lists about 2,100 reagents; below is a part drawn at random. 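Calls flag viability under 80% in either arm, not effects specific to rucaparib; the reference for percent is not stated.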 Not stated in the record: the 100% reference.

Purpose: 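Genes whose silencing sensitises or protects ovarian cancer cells against rucaparib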 (primary screen)
Cell system: human ovarian carcinoma lines grown from tumours: OCI-P5x (papillary serous) and OCI-C5x (clear cell)
Reagents: siRNA pool against human genes, 1.25 pmol siRNA per well
Time to read-out: 72 h or 96 h, depending on the cell culture
Treatment: rucaparib 20 µM (about IC30) or vehicle, present until read-out
Read-out: 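ATP luminescence measured at 72 or 96 h according to the culture, then normalised and expressed as percent viability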
Reading the numbers: viability, normalised: higher = more viable cells remaining
Call rule: 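Active when normalised viability falls below 80 percent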
Calls: active = viability under 80%; inactive = viability 80% or more

Gene	rucaparib or vehicle	cell line	technical replicate	viability, normalised (%)	Outcome
CLDN11 (claudin 11)	Rucaparib	OCI-C5x (clear cell)	1	49.2	active
CLDN11 (claudin 11)	Rucaparib	OCI-C5x (clear cell)	2	44.5	active
CLDN11 (claudin 11)	Rucaparib	OCI-C5x (clear cell)	3	38.8	active
CLDN11 (claudin 11)	Rucaparib	OCI-P5x (serous)	1	58.5	active
CLDN11 (claudin 11)	Rucaparib	OCI-P5x (serous)	2	58.8	active
CLDN11 (claudin 11)	Rucaparib	OCI-P5x (serous)	3	48.9	active
CLDN11 (claudin 11)	Vehicle	OCI-C5x (clear cell)	1	34.6	active
CLDN11 (claudin 11)	Vehicle	OCI-C5x (clear cell)	2	53.3	active
CLDN11 (claudin 11)	Vehicle	OCI-C5x (clear cell)	3	31.6	active
CLDN11 (claudin 11)	Vehicle	OCI-P5x (serous)	1	64.5	active
CLDN11 (claudin 11)	Vehicle	OCI-P5x (serous)	2	74	active
CLDN11 (claudin 11)	Vehicle	OCI-P5x (serous)	3	68.8	active
SOX21 (SRY-box transcription factor 21)	Rucaparib	OCI-C5x (clear cell)	1	35	active
SOX21 (SRY-box transcription factor 21)	Rucaparib	OCI-C5x (clear cell)	2	44.6	active
SOX21 (SRY-box transcription factor 21)	Rucaparib	OCI-C5x (clear cell)	3	36.8	active
SOX21 (SRY-box transcription factor 21)	Rucaparib	OCI-P5x (serous)	1	25	active
SOX21 (SRY-box transcription factor 21)	Rucaparib	OCI-P5x (serous)	2	19.7	active
SOX21 (SRY-box transcription factor 21)	Rucaparib	OCI-P5x (serous)	3	21.5	active
SOX21 (SRY-box transcription factor 21)	Vehicle	OCI-C5x (clear cell)	1	32.8	active
SOX21 (SRY-box transcription factor 21)	Vehicle	OCI-C5x (clear cell)	2	38.3	active
SOX21 (SRY-box transcription factor 21)	Vehicle	OCI-C5x (clear cell)	3	34.9	active
SOX21 (SRY-box transcription factor 21)	Vehicle	OCI-P5x (serous)	1	28.6	active
SOX21 (SRY-box transcription factor 21)	Vehicle	OCI-P5x (serous)	2	35.6	active
SOX21 (SRY-box transcription factor 21)	Vehicle	OCI-P5x (serous)	3	44	active
CHD1 (chromodomain helicase DNA binding protein 1)	Rucaparib	OCI-C5x (clear cell)	1	65.5	active
CHD1 (chromodomain helicase DNA binding protein 1)	Rucaparib	OCI-C5x (clear cell)	2	63.8	active
CHD1 (chromodomain helicase DNA binding protein 1)	Rucaparib	OCI-C5x (clear cell)	3	76.3	active
CHD1 (chromodomain helicase DNA binding protein 1)	Rucaparib	OCI-P5x (serous)	1	83.6	inactive
CHD1 (chromodomain helicase DNA binding protein 1)	Rucaparib	OCI-P5x (serous)	2	65	active
CHD1 (chromodomain helicase DNA binding protein 1)	Rucaparib	OCI-P5x (serous)	3	72.4	active
CHD1 (chromodomain helicase DNA binding protein 1)	Vehicle	OCI-C5x (clear cell)	1	48.5	active
CHD1 (chromodomain helicase DNA binding protein 1)	Vehicle	OCI-C5x (clear cell)	2	55.6	active
CHD1 (chromodomain helicase DNA binding protein 1)	Vehicle	OCI-C5x (clear cell)	3	55.3	active
CHD1 (chromodomain helicase DNA binding protein 1)	Vehicle	OCI-P5x (serous)	1	86.5	inactive
CHD1 (chromodomain helicase DNA binding protein 1)	Vehicle	OCI-P5x (serous)	2	84.9	inactive
CHD1 (chromodomain helicase DNA binding protein 1)	Vehicle	OCI-P5x (serous)	3	85.9	inactive
WNT4 (Wnt family member 4)	Rucaparib	OCI-C5x (clear cell)	1	77.9	active
WNT4 (Wnt family member 4)	Rucaparib	OCI-C5x (clear cell)	2	62.7	active
WNT4 (Wnt family member 4)	Rucaparib	OCI-C5x (clear cell)	3	48.8	active
WNT4 (Wnt family member 4)	Rucaparib	OCI-P5x (serous)	1	50	active
WNT4 (Wnt family member 4)	Rucaparib	OCI-P5x (serous)	2	41	active
WNT4 (Wnt family member 4)	Rucaparib	OCI-P5x (serous)	3	42.4	active
WNT4 (Wnt family member 4)	Vehicle	OCI-C5x (clear cell)	1	48.2	active
WNT4 (Wnt family member 4)	Vehicle	OCI-C5x (clear cell)	2	60	active
WNT4 (Wnt family member 4)	Vehicle	OCI-C5x (clear cell)	3	70.6	active
WNT4 (Wnt family member 4)	Vehicle	OCI-P5x (serous)	1	66.2	active
WNT4 (Wnt family member 4)	Vehicle	OCI-P5x (serous)	2	69	active
WNT4 (Wnt family member 4)	Vehicle	OCI-P5x (serous)	3	63.3	active
GLI1 (GLI family zinc finger 1)	Rucaparib	OCI-C5x (clear cell)	1	70.9	active
GLI1 (GLI family zinc finger 1)	Rucaparib	OCI-C5x (clear cell)	2	56.3	active
GLI1 (GLI family zinc finger 1)	Rucaparib	OCI-C5x (clear cell)	3	61.1	active
GLI1 (GLI family zinc finger 1)	Rucaparib	OCI-P5x (serous)	1	50.6	active
GLI1 (GLI family zinc finger 1)	Rucaparib	OCI-P5x (serous)	2	62.5	active
GLI1 (GLI family zinc finger 1)	Rucaparib	OCI-P5x (serous)	3	66	active
GLI1 (GLI family zinc finger 1)	Vehicle	OCI-C5x (clear cell)	1	59.5	active
GLI1 (GLI family zinc finger 1)	Vehicle	OCI-C5x (clear cell)	2	61.1	active
GLI1 (GLI family zinc finger 1)	Vehicle	OCI-C5x (clear cell)	3	50.6	active
GLI1 (GLI family zinc finger 1)	Vehicle	OCI-P5x (serous)	1	62.2	active
GLI1 (GLI family zinc finger 1)	Vehicle	OCI-P5x (serous)	2	65.4	active
GLI1 (GLI family zinc finger 1)	Vehicle	OCI-P5x (serous)	3	73.1	active

Ordered by “viability, normalised (%)” (low to high): some entries from above.
Gene	rucaparib or vehicle	cell line	technical replicate	viability, normalised (%)	Outcome
WNT4 (Wnt family member 4)	Rucaparib	OCI-C5x (clear cell)	3	48.8	active
WNT4 (Wnt family member 4)	Rucaparib	OCI-P5x (serous)	1	50	active
WNT4 (Wnt family member 4)	Rucaparib	OCI-C5x (clear cell)	2	62.7	active
